The source of these data is patent US10610506B2 (UCL Business PLC, priority 2004, dated 2020).

One series deals with BDL cirrhotic rats. Description: Bile duct ligated rat model, IP ornithine, phenylbutyrate, OP. The class given is in vivo, Sprague-Dawley rats. The procedure: Male Sprague-Dawley rats (200-250 g) were used for this procedure. Following anaesthetisation, a mid-line laparotamy was performed, the bile duct was exposed, triply ligated with 4.0 silk suture, and severed between the second and third ligature. The wound was closed in layers with absorbable suture, and the animal allowed to recover in a quiet room before being returned to the animal storage facility. Animals were kept at a constant temperature (20° C.) in a 12 hour light/dark cycle with access to water and standard rodent chow ad libitum. […] At six weeks, under anaesthesia a right carotid arterial catheter was inserted and used to collect repeated blood samples. Following this procedure a baseline sample was collected prior to administration of the study formulations by IP injection. […] Blood samples were collected into pre-cooled […] tubes and stored on ice prior to processing. Plasma was collected following centrifugation (3,000 rpm, 10 mins) and stored at -80° C. prior to analyses. Ammonia, glucose, lactate and urea were measured using a COBRAS Mira S according to manufacturers instructions. Amino acids were quantified by HPLC with fluorescence detection.

The test system of series [1] is devascularized pig model of acute liver failure. Description: Devascularized pig model of acute liver failure. The class given is in vivo, pigs. To be noted: frontal cortex at end of experiment, % control (FIG. 30).

Regarding `NCCC[C@H](N)C(=O)O` [ornithine], the plasma ornithine concentration result is on record as “markedly increased” in the series with BDL cirrhotic rats (1 hour following the IP injection (FIG. 20)) and “subsequently reduced” in the series with BDL cirrhotic rats (3 hours (FIG. 20)). For the same compound, in the series with BDL cirrhotic rats (over three hours after IP injection, ornithine 0.22 g/Kg, phenylbutyrate 0.3 g/Kg (FIG. 19)), the “arterial plasma ammonia levels” value was “slight decrease”. In addition, the brain water result in series [1] (listed as omithine alone) is “increase”; in series [1] (listed as ornithine alone), “considerable increase”.
